Assay results reported in article doi:10.1101/2025.10.26.684708.
Residue numbers refer to the chain shown, from its start. Read-outs that look alike come from different tables or passages of the source. Results are given in words; binding and its absence hold for the method and conditions named. In cells and extracts the contact can be indirect. Some results given as binding are weak or reduced against the parent protein; the word gives no strength. For some of these results: Sequences can lack the tags named with a protein.

Chains of the proteins cited; added tags and fusions are not shown.
UniProt Q9CUN6: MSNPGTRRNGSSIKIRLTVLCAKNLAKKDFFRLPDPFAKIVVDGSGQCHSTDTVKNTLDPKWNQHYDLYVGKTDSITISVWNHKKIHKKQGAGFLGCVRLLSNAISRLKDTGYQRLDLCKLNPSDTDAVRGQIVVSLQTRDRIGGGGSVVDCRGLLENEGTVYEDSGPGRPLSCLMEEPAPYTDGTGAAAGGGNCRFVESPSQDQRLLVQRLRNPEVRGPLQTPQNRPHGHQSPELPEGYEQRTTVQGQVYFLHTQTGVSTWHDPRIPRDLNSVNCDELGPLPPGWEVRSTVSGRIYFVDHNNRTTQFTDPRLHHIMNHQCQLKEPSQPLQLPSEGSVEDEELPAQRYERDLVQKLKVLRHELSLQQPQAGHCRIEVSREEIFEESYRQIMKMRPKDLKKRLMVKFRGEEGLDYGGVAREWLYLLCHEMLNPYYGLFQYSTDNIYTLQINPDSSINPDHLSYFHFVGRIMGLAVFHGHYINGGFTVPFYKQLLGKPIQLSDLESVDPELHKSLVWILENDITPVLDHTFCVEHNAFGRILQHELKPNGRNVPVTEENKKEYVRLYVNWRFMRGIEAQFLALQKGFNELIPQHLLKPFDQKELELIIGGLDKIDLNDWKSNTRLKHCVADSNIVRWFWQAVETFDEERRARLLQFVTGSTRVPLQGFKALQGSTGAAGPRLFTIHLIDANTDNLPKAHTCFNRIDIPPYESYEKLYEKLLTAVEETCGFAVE
UniProt Q9R1A8: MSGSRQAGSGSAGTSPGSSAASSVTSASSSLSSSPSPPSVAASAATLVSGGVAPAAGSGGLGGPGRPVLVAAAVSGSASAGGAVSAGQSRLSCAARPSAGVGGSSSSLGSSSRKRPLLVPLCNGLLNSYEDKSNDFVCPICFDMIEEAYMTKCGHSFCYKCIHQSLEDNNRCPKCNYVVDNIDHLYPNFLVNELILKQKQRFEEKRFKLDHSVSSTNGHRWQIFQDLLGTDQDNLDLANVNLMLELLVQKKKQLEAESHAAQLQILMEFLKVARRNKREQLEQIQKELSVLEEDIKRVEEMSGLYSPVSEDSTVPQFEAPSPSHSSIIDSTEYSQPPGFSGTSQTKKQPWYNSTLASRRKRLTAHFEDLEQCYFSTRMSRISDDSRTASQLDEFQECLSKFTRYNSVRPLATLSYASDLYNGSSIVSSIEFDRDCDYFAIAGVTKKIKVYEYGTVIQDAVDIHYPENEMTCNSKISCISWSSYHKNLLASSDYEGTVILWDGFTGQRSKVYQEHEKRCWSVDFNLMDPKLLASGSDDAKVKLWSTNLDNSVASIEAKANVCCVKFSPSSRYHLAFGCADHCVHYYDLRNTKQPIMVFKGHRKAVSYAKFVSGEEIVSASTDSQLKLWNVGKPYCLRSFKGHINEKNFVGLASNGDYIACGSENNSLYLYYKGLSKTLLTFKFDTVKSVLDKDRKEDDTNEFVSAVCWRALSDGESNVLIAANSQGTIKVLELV
UniProt O75592: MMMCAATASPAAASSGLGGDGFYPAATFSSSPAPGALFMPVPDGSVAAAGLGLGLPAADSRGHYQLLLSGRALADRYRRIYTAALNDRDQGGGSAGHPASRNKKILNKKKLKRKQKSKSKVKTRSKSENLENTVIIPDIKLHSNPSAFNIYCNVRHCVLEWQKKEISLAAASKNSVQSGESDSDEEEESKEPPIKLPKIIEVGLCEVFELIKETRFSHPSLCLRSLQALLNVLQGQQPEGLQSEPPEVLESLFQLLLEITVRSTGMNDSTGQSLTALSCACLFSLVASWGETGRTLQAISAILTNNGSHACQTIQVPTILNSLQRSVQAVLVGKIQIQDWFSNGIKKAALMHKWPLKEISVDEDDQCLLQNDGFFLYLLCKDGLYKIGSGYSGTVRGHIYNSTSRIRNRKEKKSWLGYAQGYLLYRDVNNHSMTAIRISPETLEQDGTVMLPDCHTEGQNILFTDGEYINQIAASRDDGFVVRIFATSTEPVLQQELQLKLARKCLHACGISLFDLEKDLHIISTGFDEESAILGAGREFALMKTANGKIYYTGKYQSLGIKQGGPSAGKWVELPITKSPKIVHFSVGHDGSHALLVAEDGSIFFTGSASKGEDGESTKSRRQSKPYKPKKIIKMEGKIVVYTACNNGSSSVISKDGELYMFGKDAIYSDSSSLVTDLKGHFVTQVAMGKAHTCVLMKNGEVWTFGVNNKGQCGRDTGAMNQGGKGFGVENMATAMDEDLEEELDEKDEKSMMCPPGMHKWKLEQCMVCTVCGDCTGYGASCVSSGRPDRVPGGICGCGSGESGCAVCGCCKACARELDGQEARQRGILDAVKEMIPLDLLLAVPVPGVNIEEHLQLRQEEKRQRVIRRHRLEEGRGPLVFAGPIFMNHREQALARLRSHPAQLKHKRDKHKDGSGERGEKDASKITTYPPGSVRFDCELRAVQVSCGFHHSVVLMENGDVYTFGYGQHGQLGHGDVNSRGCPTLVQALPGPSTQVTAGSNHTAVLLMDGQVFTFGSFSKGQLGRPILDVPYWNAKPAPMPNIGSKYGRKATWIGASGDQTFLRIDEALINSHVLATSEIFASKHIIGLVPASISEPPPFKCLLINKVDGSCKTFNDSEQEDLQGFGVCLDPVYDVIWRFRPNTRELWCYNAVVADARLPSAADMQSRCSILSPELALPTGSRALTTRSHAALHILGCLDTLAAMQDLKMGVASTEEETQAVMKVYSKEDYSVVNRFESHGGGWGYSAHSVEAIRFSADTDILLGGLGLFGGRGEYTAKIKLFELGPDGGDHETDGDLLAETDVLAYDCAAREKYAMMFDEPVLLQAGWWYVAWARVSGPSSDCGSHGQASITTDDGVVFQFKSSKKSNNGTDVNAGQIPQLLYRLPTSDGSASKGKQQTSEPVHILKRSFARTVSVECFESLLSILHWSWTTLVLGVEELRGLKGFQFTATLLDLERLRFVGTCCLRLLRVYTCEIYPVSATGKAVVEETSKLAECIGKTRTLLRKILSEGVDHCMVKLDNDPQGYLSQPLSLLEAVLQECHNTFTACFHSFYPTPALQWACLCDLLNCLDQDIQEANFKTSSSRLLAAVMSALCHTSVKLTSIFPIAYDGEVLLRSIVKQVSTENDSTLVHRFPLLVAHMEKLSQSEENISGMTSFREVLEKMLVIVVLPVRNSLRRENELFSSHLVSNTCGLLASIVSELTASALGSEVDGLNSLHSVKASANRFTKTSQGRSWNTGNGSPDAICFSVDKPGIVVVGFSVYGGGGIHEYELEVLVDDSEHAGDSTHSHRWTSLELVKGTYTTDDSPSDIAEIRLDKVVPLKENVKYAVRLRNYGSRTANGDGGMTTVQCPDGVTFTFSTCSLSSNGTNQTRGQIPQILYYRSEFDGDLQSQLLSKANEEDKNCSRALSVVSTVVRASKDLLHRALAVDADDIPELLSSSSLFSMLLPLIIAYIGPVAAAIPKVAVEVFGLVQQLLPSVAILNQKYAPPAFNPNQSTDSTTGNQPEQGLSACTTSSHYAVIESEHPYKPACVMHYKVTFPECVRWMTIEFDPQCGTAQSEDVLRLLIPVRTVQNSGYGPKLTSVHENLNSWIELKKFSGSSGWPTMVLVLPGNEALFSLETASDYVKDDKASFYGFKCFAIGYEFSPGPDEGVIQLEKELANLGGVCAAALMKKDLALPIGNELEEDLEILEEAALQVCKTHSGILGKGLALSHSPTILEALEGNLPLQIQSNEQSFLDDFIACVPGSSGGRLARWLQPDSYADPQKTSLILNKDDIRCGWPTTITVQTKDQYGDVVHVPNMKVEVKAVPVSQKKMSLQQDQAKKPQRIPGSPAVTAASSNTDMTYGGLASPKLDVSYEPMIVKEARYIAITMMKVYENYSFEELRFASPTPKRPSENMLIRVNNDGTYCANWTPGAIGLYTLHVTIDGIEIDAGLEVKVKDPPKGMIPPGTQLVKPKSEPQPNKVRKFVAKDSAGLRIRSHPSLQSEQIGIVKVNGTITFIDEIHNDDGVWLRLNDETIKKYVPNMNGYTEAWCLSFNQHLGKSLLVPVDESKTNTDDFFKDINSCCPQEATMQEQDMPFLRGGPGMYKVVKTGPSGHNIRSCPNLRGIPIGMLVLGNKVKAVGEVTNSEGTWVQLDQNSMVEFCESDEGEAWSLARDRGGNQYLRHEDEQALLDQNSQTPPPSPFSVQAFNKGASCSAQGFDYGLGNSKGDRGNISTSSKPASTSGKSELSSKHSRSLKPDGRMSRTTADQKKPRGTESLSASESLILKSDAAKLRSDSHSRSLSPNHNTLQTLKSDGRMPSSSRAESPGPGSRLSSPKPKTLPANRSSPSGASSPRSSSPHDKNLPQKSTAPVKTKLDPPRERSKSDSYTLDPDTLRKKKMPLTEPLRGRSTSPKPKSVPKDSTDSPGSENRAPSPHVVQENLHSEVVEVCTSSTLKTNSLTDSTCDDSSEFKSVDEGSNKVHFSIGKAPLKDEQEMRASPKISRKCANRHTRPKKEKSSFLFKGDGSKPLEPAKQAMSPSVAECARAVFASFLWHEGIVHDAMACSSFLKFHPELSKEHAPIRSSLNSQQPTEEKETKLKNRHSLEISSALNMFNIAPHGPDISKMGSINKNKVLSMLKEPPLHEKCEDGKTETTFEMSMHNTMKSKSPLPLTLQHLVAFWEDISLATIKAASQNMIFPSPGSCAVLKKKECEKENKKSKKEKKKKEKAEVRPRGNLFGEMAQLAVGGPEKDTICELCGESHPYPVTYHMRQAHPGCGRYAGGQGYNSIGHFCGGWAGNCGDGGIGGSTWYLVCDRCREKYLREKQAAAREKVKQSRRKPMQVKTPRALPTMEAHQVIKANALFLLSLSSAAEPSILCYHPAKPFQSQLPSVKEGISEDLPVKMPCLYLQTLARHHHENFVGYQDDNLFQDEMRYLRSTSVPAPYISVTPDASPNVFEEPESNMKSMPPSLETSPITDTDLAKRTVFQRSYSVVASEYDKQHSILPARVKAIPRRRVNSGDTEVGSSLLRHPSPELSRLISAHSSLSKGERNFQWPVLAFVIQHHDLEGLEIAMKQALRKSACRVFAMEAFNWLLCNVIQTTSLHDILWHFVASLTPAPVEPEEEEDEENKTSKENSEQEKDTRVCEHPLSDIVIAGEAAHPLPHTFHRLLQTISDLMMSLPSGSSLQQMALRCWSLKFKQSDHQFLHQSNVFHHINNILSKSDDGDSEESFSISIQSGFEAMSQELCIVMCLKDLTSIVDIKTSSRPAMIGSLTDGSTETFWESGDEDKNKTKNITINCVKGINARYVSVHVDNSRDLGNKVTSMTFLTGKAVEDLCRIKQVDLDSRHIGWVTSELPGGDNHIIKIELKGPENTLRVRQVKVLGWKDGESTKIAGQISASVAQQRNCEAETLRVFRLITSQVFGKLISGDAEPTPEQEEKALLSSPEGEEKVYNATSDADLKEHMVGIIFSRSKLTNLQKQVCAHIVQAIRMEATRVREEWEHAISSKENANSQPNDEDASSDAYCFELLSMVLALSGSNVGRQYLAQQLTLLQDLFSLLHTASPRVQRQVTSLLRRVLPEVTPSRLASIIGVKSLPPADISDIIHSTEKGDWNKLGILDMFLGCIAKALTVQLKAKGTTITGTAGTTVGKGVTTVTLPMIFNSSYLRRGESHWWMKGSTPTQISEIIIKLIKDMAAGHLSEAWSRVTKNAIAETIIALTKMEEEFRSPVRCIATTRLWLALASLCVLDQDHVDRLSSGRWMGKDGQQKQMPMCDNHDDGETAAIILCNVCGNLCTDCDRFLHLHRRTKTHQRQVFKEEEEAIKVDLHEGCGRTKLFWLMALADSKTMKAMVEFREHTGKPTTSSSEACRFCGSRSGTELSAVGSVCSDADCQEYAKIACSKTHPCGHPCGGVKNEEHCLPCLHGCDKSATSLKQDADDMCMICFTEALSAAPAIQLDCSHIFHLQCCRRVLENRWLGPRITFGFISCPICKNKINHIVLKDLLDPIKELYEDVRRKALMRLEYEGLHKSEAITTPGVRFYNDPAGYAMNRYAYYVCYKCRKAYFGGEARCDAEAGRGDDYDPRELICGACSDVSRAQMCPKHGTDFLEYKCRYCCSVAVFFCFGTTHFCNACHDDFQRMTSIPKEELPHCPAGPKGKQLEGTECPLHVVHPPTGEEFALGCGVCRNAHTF

Columns and labels:
[1] = target: T1, endogenous UCP1 of mouse brown adipose tissue (mouse (endogenous in BAT)) (UniProt P12242); experiment: co-IP
T1 sequence: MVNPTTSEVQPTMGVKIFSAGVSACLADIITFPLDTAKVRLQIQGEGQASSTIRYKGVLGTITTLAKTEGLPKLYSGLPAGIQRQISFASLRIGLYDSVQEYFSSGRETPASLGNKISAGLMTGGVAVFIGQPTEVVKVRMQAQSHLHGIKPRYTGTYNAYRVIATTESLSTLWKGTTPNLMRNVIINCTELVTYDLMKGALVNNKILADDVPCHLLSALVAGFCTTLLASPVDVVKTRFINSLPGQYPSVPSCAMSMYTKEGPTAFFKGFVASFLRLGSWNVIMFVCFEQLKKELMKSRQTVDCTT

[2] = target: T2, UCP1-GFP (human uncoupling protein 1 with GFP) (human) (UniProt P25874); experiment: co-IP
T2 sequence: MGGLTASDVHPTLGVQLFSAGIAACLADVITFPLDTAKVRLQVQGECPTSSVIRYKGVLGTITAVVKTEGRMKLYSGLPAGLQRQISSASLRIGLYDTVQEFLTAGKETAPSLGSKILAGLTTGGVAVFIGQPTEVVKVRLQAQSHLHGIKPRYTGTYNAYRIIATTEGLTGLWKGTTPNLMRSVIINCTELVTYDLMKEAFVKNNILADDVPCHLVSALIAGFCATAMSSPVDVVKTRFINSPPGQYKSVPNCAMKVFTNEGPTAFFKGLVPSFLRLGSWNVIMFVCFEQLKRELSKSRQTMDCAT

[3] = target: T2, UCP1-GFP (human uncoupling protein 1 with GFP) (human); experiment: co-IP; remark: listed apart in the source
[4] = target: T3, TRIB2-GST (full-length mouse TRIB2 with GST) (mouse) (UniProt Q8K4K3); experiment: pull-down
T3 sequence: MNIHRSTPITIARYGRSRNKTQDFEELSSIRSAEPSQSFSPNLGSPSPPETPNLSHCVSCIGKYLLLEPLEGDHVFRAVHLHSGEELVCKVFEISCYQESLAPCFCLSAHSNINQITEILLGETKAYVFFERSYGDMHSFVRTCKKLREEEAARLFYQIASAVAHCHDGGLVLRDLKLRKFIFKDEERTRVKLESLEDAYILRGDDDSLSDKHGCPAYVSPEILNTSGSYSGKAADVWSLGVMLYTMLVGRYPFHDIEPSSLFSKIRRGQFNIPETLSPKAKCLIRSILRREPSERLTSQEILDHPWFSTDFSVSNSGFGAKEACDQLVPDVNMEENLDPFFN

[5] = target: T1, endogenous UCP1 of mouse brown adipose tissue (mouse (endogenous in BAT)); experiment: proximity ligation
[6] = target: T1, endogenous UCP1 of mouse brown adipose tissue (mouse (endogenous in BAT)); experiment: co-IP; remark: listed apart in the source

Smurf1 (from UniProt Q9CUN6 1-731)
binding [1]: no binding

COP1 (from UniProt Q9R1A8 1-733)
binding [1]: no binding

MYCBP2-Myc (from UniProt O75592 1-4678)
binding [2]: binds

B1: TRIB2-His (full-length human TRIB2) (protein, UniProt Q92519 1-343)
chain: T3 sequence with E93D, L120I, G318A, F319Y, A324V, C325S
binding [3]: binds

B2: endogenous UCP1 of mouse brown adipose tissue (protein, UniProt P12242 1-307)
chain: T1 sequence
binding [4]: binds

B3: endogenous TRIB2 of mouse brown adipose tissue (protein, UniProt Q8K4K3 1-343)
chain: T3 sequence
binding [5]: binds | binding [6]: binds
